This data set concerns HLA class I ligandomes of OPSCC tissue samples. The data set is described as follows: LC-MS/MS analysis of HLA class I ligandomes isolated from OPSCC tissue samples. More on the design: species or system human. To be noted: for Peptide Representation frequency in allotype-positive samples: OPSCC samples positive for the restricting HLA allotype; for Peptide Representation frequency in cohort: whole OPSCC cohort (n=40), HLA class I ligands.

As for “GVLENIFGV [SEQ ID NO: 15, MHC/HLA class I peptide, allotype A*02:01]”, the “Peptide Representation frequency in allotype-positive samples” value worked out at 23% and the “Peptide Representation frequency in cohort” value came to 13%.
In the same order, the values of “HGTIKNQL [SEQ ID NO: 42, MHC/HLA class I peptide, allotype B*08:01]” are 30% and 8%.
On to “EMEAQNQEY [SEQ ID NO: 26, MHC/HLA class I peptide, allotype A*01:01]”, for which the “Peptide Representation frequency in allotype-positive samples” value was 29% and the “Peptide Representation frequency in cohort” value amounted to 10%.
Consider “EETNPKGSGW [SEQ ID NO: 46, MHC/HLA class I peptide, allotype B*44:02]”, for which the “Peptide Representation frequency in allotype-positive samples” value came to 64% and the “Peptide Representation frequency in cohort” value is reported as 13%.
In the same order, the values of “YTFRYPLSL [SEQ ID NO: 54, MHC/HLA class I peptide, allotype C*07:01]” are 23% and 8%.
In the same order, the values of “NWPSRPYLF [SEQ ID NO: 34, MHC/HLA class I peptide, allotype A*24:02]” are 33% and 10%.
Taken in the same sequence, the figures for “REVVDPEVFF [SEQ ID NO: 49, MHC/HLA class I peptide, allotype B*40:01]” were 50% and 8%.
“RLLEGEDAHL [SEQ ID NO: 20, MHC/HLA class I peptide, allotype A*02:01]”: the “Peptide Representation frequency in allotype-positive samples” value amounted to 27% and the “Peptide Representation frequency in cohort” value turned out to be 15%.
As to “YEIDDVERL [SEQ ID NO: 59, MHC/HLA class I peptide, allotype C*03:04]”, the “Peptide Representation frequency in allotype-positive samples” value stood at 33% and the “Peptide Representation frequency in cohort” value is 8%.
Taken in the same sequence, the figures for “KYMYFTVVM [SEQ ID NO: 33, MHC/HLA class I peptide, allotype A*24:02]” were 58% and 18%.
In the case of “ALLGSAFQL [SEQ ID NO: 19, MHC/HLA class I peptide, allotype A*02:01]”, the “Peptide Representation frequency in allotype-positive samples” value was 14% and the “Peptide Representation frequency in cohort” value stood at 8%.
Taken in the same sequence, the figures for “SPEDGIHEL [SEQ ID NO: 57, MHC/HLA class I peptide, allotype C*04:01]” were 25% and 8%.
On to “VAAPRWVL [SEQ ID NO: 43, MHC/HLA class I peptide, allotype B*08:01]”, for which the “Peptide Representation frequency in allotype-positive samples” value was determined as 30% and the “Peptide Representation frequency in cohort” value came to 8%.
In the same order, the values of “SAVKEGTAM [SEQ ID NO: 60, MHC/HLA class I peptide, allotype C*03:04]” are 22% and 5%.
Taken in the same sequence, the figures for “DATETTITI [SEQ ID NO: 39, MHC/HLA class I peptide, allotype B*51:01]” were 23% and 8%.
As to “RTEFNLNQY [SEQ ID NO: 25, MHC/HLA class I peptide, allotype A*01:01]”, the “Peptide Representation frequency in allotype-positive samples” value was 57% and the “Peptide Representation frequency in cohort” value was 20%.
In the same order, the values of “SEPNDVFFKL [SEQ ID NO: 50, MHC/HLA class I peptide, allotype B*40:01]” are 50% and 8%.
Regarding “RLDDLKMTV [SEQ ID NO: 17, MHC/HLA class I peptide, allotype A*02:01]”, the “Peptide Representation frequency in allotype-positive samples” value was 23% and the “Peptide Representation frequency in cohort” value worked out at 13%.
As for “YSELASHVVSY [SEQ ID NO: 28, MHC/HLA class I peptide, allotype A*01:01]”, the “Peptide Representation frequency in allotype-positive samples” value came out at 57% and the “Peptide Representation frequency in cohort” value was 20%.
On to “RTDIARTEY [SEQ ID NO: 27, MHC/HLA class I peptide, allotype A*01:01]”, for which the “Peptide Representation frequency in allotype-positive samples” value came to 29% and the “Peptide Representation frequency in cohort” value was 10%.
On to “ARLIPIIVL [SEQ ID NO: 62, MHC/HLA class I peptide, allotype C*06:02]”, for which the “Peptide Representation frequency in allotype-positive samples” value is 43% and the “Peptide Representation frequency in cohort” value is recorded as 8%.
As to “DQYKFLAV [SEQ ID NO: 40, MHC/HLA class I peptide, allotype B*51:01]”, the “Peptide Representation frequency in allotype-positive samples” value stood at 54% and the “Peptide Representation frequency in cohort” value is 18%.
In the same order, the values of “VALPVYLLI [SEQ ID NO: 41, MHC/HLA class I peptide, allotype B*51:01]” are 31% and 10%.
Consider “ALTDIVSQV [SEQ ID NO: 21, MHC/HLA class I peptide, allotype A*02:01]”, for which the “Peptide Representation frequency in allotype-positive samples” value turned out to be 18% and the “Peptide Representation frequency in cohort” value was 10%.
For the sequence “VFDLVELEVL [SEQ ID NO: 58, MHC/HLA class I peptide, allotype C*04:01]”, the “Peptide Representation frequency in allotype-positive samples” value was 17% and the “Peptide Representation frequency in cohort” value came to 5%.
Taken in the same sequence, the figures for “KLAEISLGV [SEQ ID NO: 16, MHC/HLA class I peptide, allotype A*02:01]” were 18% and 10%.
Regarding “GLWEDGRSTLL [SEQ ID NO: 18, MHC/HLA class I peptide, allotype A*02:01]”, the “Peptide Representation frequency in allotype-positive samples” value came out at 14% and the “Peptide Representation frequency in cohort” value is reported as 8%.
On to “ARLAFVIVF [SEQ ID NO: 55, MHC/HLA class I peptide, allotype C*07:01]”, for which the “Peptide Representation frequency in allotype-positive samples” value is given as 15% and the “Peptide Representation frequency in cohort” value is given as 5%.
Regarding “YEEAMKEVL [SEQ ID NO: 61, MHC/HLA class I peptide, allotype C*03:04]”, the “Peptide Representation frequency in allotype-positive samples” value amounted to 22% and the “Peptide Representation frequency in cohort” value was 5%.

Source of the values: patent publication US20250208136A1, “Peptides and combinations of peptides for use in immunotherapy against oropharyngeal squamous cell carcinoma (OPSCC) and other cancers” (Eberhard Karls Universität Tübingen Medizinische Fakultät, priority 2022, published 2025).
